Data published in the supplement of paper PMC11732987, “Enantioselective OTUD7B fragment discovery through chemoproteomics screening and high-throughput optimisation” (Communications Chemistry, 2025).
The list shows a part of the results. The data scatter; read single values as rough.

compound: ClCC(=O)N[C@@H]1CCCc2ccccc12; assay: log2 mean competition ratio of IA-DTB cysteine labelling (DMSO/compound) (log2 ratio); higher = stronger cysteine engagement by compound; conditions: 50 µM; treatment time: 4 h; cell line lysate: HEK293T
Method: (§1)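 IA-DTB competitive cysteine chemoproteomics in HEK293T RIPA lysate. Lysates were treated with compound 29 or 30 at 50 or 200 µM for 4 h, then IA-DTB (500 µM, 1 h), trypsin-digested, NeutrAvidin-enriched and analysed by diaPASEF. Competition ratio = intensity DMSO / intensity compound (n=4 treated, n=64 DMSO); binding: mean log2 CR ≥ 1 and p ≤ 0.05 plus QC filters. Target is the cysteine site.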

Row | Target | log2 mean competition ratio
1 | NET1 C556 (UniProt Q7Z628) | 0.448
2 | NCOA3 C769 (UniProt Q9Y6Q9) | 0.023
3 | NIFK C118 (UniProt Q9BYG3) | 0.0369
4 | NHSL1 C1471 (UniProt Q5SYE7) | -0.226
5 | NOCT C302 (UniProt Q9UK39) | -0.254
6 | NFAT5 C108 (UniProt O94916) | -0.0659
7 | NDUFA8 C110 (UniProt P51970) | 0.0388
8 | NKIRAS2 C10 (UniProt Q9NYR9) | 0.103
9 | NDRG3 C290 (UniProt Q9UGV2) | -0.0481
10 | NINL C1009 | -0.0439

same assay, conditions: 200 µM; treatment time: 4 h; cell line lysate: HEK293T

Row | Target | log2 mean competition ratio
11 | NKRF C386 (UniProt O15226) | 0.135
12 | NF1 C324 (UniProt P21359) | 0.16
13 | NOL6 C1034 (UniProt Q9H6R4) | 0.473
14 | NFKB2 C738 (UniProt Q00653) | 0.18
15 | NIPBL C1971 (UniProt Q6KC79) | -0.162
16 | NCAPG C177 (UniProt Q9BPX3) | -0.0928
17 | NIT2 C44 (UniProt Q9NQR4) | 0.106
18 | NAT10 C658 (UniProt Q9H0A0) | 0.307
19 | NCDN C22 (UniProt Q9UBB6) | 0.187
20 | NCKAP1 C556 (UniProt Q9Y2A7) | -0.53
21 | NFKB2 C83 (UniProt Q00653) | -0.0449
22 | NDUFA11 C18 (UniProt Q86Y39) | 0.406
23 | NAXE C283 (UniProt Q8NCW5) | 0.0368
24 | NFKB2 C57 (UniProt Q00653) | -0.0185
25 | NDC1 C369 (UniProt Q9BTX1) | -0.199
26 | NME2 C145 (UniProt P22392) | -0.212
27 | NAT10 C746 (UniProt Q9H0A0) | 0.34
28 | NF1 C904 (UniProt P21359) | 0.206
29 | NHSL1 C268 (UniProt Q5SYE7) | 0.56

Row | Target | log2 mean competition ratio
30 | NOP56 C211 (UniProt O00567) | 0.337
31 | NCK1 C139 (UniProt P16333) | -0.0445
32 | NCOA3 C716 (UniProt Q9Y6Q9) | -0.535
33 | NOPCHAP1 C13 | -0.165
34 | NEK7 C298 (UniProt Q8TDX7) | 0.0382
35 | NASP C84 (UniProt P49321) | -0.0047
36 | NCDN C491 (UniProt Q9UBB6) | -0.129
37 | NEK9 C556 (UniProt Q8TD19) | 0.0461
38 | NET1 C556 (UniProt Q7Z628) | 0.0191
39 | NCOA3 C769 (UniProt Q9Y6Q9) | -0.188
40 | NIFK C118 (UniProt Q9BYG3) | -0.0894
41 | NHSL1 C1471 (UniProt Q5SYE7) | -0.367
42 | NOCT C302 (UniProt Q9UK39) | 0.107
43 | NFAT5 C108 (UniProt O94916) | -0.147
44 | NDUFA8 C110 (UniProt P51970) | 0.656
45 | NKIRAS2 C10 (UniProt Q9NYR9) | 0.0599
46 | NDRG3 C290 (UniProt Q9UGV2) | 0.0479
47 | NINL C1009 | -0.0222

compound: ClCC(=O)N[C@H]1CCCc2ccccc12; assay: as above; conditions: 50 µM; treatment time: 4 h; cell line lysate: HEK293T
Method: as §1

Row | Target | log2 mean competition ratio
48 | NKRF C386 (UniProt O15226) | -0.449
49 | NF1 C324 (UniProt P21359) | -0.484
50 | NOL6 C1034 (UniProt Q9H6R4) | 0.221
51 | NFKB2 C738 (UniProt Q00653) | -0.156
52 | NIPBL C1971 (UniProt Q6KC79) | 0.253
53 | NCAPG C177 (UniProt Q9BPX3) | 0.621
54 | NIT2 C44 (UniProt Q9NQR4) | 0.274
55 | NAT10 C658 (UniProt Q9H0A0) | -0.0774
56 | NCDN C22 (UniProt Q9UBB6) | 0.1
57 | NCKAP1 C556 (UniProt Q9Y2A7) | 0.407
58 | NFKB2 C83 (UniProt Q00653) | 0.427
59 | NDUFA11 C18 (UniProt Q86Y39) | 0.0527
60 | NAXE C283 (UniProt Q8NCW5) | 0.37
61 | NFKB2 C57 (UniProt Q00653) | -0.331
62 | NDC1 C369 (UniProt Q9BTX1) | -0.472
63 | NME2 C145 (UniProt P22392) | 0.028
64 | NAT10 C746 (UniProt Q9H0A0) | -0.112
65 | NF1 C904 (UniProt P21359) | 0.463
66 | NHSL1 C268 (UniProt Q5SYE7) | -0.17

Row | Target | log2 mean competition ratio
67 | NOP56 C211 (UniProt O00567) | 0.298
68 | NCK1 C139 (UniProt P16333) | -0.322
69 | NCOA3 C716 (UniProt Q9Y6Q9) | 0.308
70 | NOPCHAP1 C13 | 0.0191
71 | NEK7 C298 (UniProt Q8TDX7) | -0.00342
72 | NASP C84 (UniProt P49321) | 0.287
73 | NCDN C491 (UniProt Q9UBB6) | 0.182
74 | NEK9 C556 (UniProt Q8TD19) | -0.0228
75 | NET1 C556 (UniProt Q7Z628) | 0.249
76 | NCOA3 C769 (UniProt Q9Y6Q9) | -0.124
77 | NIFK C118 (UniProt Q9BYG3) | -0.758
78 | NHSL1 C1471 (UniProt Q5SYE7) | -0.0421
79 | NOCT C302 (UniProt Q9UK39) | -0.248
80 | NFAT5 C108 (UniProt O94916) | 0.0694
81 | NDUFA8 C110 (UniProt P51970) | -0.183
82 | NKIRAS2 C10 (UniProt Q9NYR9) | -0.0514
83 | NDRG3 C290 (UniProt Q9UGV2) | 0.279
84 | NINL C1009 | -0.12
